Where a name gives a salt, the structure may show the parent alone. The list shows a part of the results. Hit calls seldom repeat between salt and free forms of one compound.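 Kinases, fused to nanoluciferase, were expressed in K562 cells; luminescence was measured every 4 h from 2 to 18 h as percent of control (DMSO = 100%, positive control = 0%). A time point is decreased if signal falls significantly (2 sigma). Hits were called by the authors by a rule that is not shown; the count of time points alone does not decide it.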
target: CDK2 (UniProt P24941); assay: number of time points (of 5) at which kinase-Nluc abundance scored as decreased, DMSO-normalised (count); higher = more persistent destabilization; conditions: K562; 2-18 h

Row | Compound | number of time points
1 | C[C@@H]1CCN(C(=O)CC#N)C[C@@H]1N(C)c1ncnc2[nH]ccc12 [Tofacitinib] (10 µM) | 0
2 | CC#CC(=O)N1CC[C@@H](n2c(=O)n(-c3ccc(Oc4ccccc4)cc3)c3c(N)ncnc32)C1 [Tirabrutinib (hydrochloride)] (10 µM) | 0
3 | Cc1ccc(C(=O)Nc2ccc(Oc3cc4cnn(C)c4cc3-c3cn[nH]c3)c(F)c2)c(=O)n1-c1ccc(F)cc1 [Merestinib] (2.5 µM) | 0
4 | Cc1cc(Nc2ncnc3ccc(NC4=NC(C)(C)CO4)cc23)ccc1Oc1ccn2ncnc2c1 [Tucatinib (hemiethanolate)] (2.5 µM) | 0
5 | C[C@@]1(c2ncncc2F)NC(=O)c2cc(-c3cn[nH]c3)ccc21 (10 µM) | 0
6 | COc1cc(Nc2ncc(F)c(Nc3ccc4c(n3)NC(=O)C(C)(C)O4)n2)cc(OC)c1OC (10 µM) | 4
7 | Cc1cc2ncc(-c3ccc(O)c(O)c3)nc2cc1C [Tyrphostin AG1433] (10 µM) | 0
8 | C=CC(=O)Nc1cccc(Nc2nc(Nc3ccc(N4CCN(C(C)=O)CC4)cc3OC)ncc2C(F)(F)F)c1 [Rociletinib hydrobromide] (10 µM) | 0
9 | Cc1cc(Nc2ncnc3ccc(NC4=NC(C)(C)CO4)cc23)ccc1Oc1ccn2ncnc2c1 [Tucatinib] (2.5 µM) | 0
10 | CCc1cc2c(cc1N1CCC(N3CCOCC3)CC1)C(C)(C)c1[nH]c3cc(C#N)ccc3c1C2=O [Alectinib (Hydrochloride)] (2 µM) | 0
11 | COc1cc2c(N3CCN(C(=O)Nc4ccc(OC(C)C)cc4)CC3)ncnc2cc1OCCCN1CCCCC1 [Tandutinib] (10 µM) | 0
12 | CC#CC(=O)N1CC[C@@H](n2c(=O)n(-c3ccc(Oc4ccccc4)cc3)c3c(N)ncnc32)C1 [Tirabrutinib] (10 µM) | 0
13 | C=CC(=O)Nc1cccc(Nc2nc(Nc3ccc(N4CCN(C(C)=O)CC4)cc3OC)ncc2C(F)(F)F)c1 [Rociletinib] (10 µM) | 0
14 | COc1cc(Nc2ncc(F)c(Nc3ccc4c(n3)N(COP(=O)(O)O)C(=O)C(C)(C)O4)n2)cc(OC)c1OC [Fostamatinib Disodium] (10 µM) | 0
15 | COc1cc2c(N3CCN(C(=O)Nc4ccc(OC(C)C)cc4)CC3)ncnc2cc1OCCCN1CCCCC1 [Tandutinib (hydrochloride)] (10 µM) | 0
16 | COc1cc(Nc2ncc(F)c(Nc3ccc4c(n3)N(COP(=O)(O)O)C(=O)C(C)(C)O4)n2)cc(OC)c1OC [Fostamatinib (disodium hexahydrate)] (10 µM) | 0
17 | COc1cc2nccc(Oc3ccc(NC(=O)NC4CC4)c(Cl)c3)c2cc1C(N)=O [Lenvatinib (mesylate)] (10 µM) | 0

Reprinted from the listing for reference:
Row | Compound | number of time points
7 | Cc1cc2ncc(-c3ccc(O)c(O)c3)nc2cc1C [Tyrphostin AG1433] (10 µM) | 0
8 | C=CC(=O)Nc1cccc(Nc2nc(Nc3ccc(N4CCN(C(C)=O)CC4)cc3OC)ncc2C(F)(F)F)c1 [Rociletinib hydrobromide] (10 µM) | 0
9 | Cc1cc(Nc2ncnc3ccc(NC4=NC(C)(C)CO4)cc23)ccc1Oc1ccn2ncnc2c1 [Tucatinib] (2.5 µM) | 0
10 | CCc1cc2c(cc1N1CCC(N3CCOCC3)CC1)C(C)(C)c1[nH]c3cc(C#N)ccc3c1C2=O [Alectinib (Hydrochloride)] (2 µM) | 0
11 | COc1cc2c(N3CCN(C(=O)Nc4ccc(OC(C)C)cc4)CC3)ncnc2cc1OCCCN1CCCCC1 [Tandutinib] (10 µM) | 0
12 | CC#CC(=O)N1CC[C@@H](n2c(=O)n(-c3ccc(Oc4ccccc4)cc3)c3c(N)ncnc32)C1 [Tirabrutinib] (10 µM) | 0
13 | C=CC(=O)Nc1cccc(Nc2nc(Nc3ccc(N4CCN(C(C)=O)CC4)cc3OC)ncc2C(F)(F)F)c1 [Rociletinib] (10 µM) | 0

Remaining list, next part

Row | Compound | number of time points
18 | Oc1ccc(Nc2nc(-c3ccc(Cl)cc3)cs2)cc1 (10 µM) | 0
19 | NC(=O)c1nc(Nc2ccccc2)sc1NC(=O)C1CCCCC1 (10 µM) | 0
20 | CC1=C(C(=O)O)N2C(=O)[C@@H](NC(=O)[C@H](N)C3=CCC=CC3)[C@H]2SC1 [Cephradine] (10 µM) | 0
21 | Cc1ccc(C(=O)Nc2ccc(Oc3cc4cnn(C)c4cc3-c3cn[nH]c3)c(F)c2)c(=O)n1-c1ccc(F)cc1 [Merestinib dihydrochloride] (2.5 µM) | 0
22 | CC(=O)NC1CC(n2cnc(NC(=O)Cc3ccc4ccccc4c3)c2)C1 (centres undefined) (10 µM) | 0
23 | COc1cc2nccc(Oc3ccc(NC(=O)NC4CC4)c(Cl)c3)c2cc1C(N)=O [Lenvatinib] (10 µM) | 0
24 | Cn1cnc2c(F)c(Nc3ccc(Br)cc3Cl)c(C(=O)NOCCO)cc21 [Selumetinib (sulfate)] (10 µM) | 0
25 | C[C@@H]1CCN(C(=O)CC#N)C[C@@H]1N(C)c1ncnc2[nH]ccc12 [Tofacitinib (citrate)] (10 µM) | 0
26 | COc1cc(Nc2ncc(F)c(Nc3ccc4c(n3)NC(=O)C(C)(C)O4)n2)cc(OC)c1OC [R406 (free base)] (10 µM) | 0
27 | S=C(SSC(=S)N1CCOCC1)N1CCOCC1 (10 µM) | 0
28 | CC1CCc2c(cc(Br)c(F)c2Br)N1C=O (centres undefined) (10 µM) | 0
29 | Cc1[nH]c(/C=C2\C(=O)Nc3ccccc32)c(C)c1CCC(=O)O [(Z)-Orantinib] (10 µM) | 0
30 | Cn1cnc2c(F)c(Nc3ccc(Br)cc3Cl)c(C(=O)NOCCO)cc21 [Selumetinib] (10 µM) | 0
31 | CCc1cc2c(cc1N1CCC(N3CCOCC3)CC1)C(C)(C)c1[nH]c3cc(C#N)ccc3c1C2=O [Alectinib] (10 µM) | 0
32 | C=C(CC[C@@H](C(=O)O)[C@H]1[C@H](O)C[C@@]2(C)C3=C(CC[C@]12C)[C@@]1(C)CC[C@H](OC(C)=O)C(C)(C)[C@@H]1CC3)C(C)C [Pachymic acid] (10 µM) | 0
33 | Cc1[nH]c(/C=C2\C(=O)Nc3ccccc32)c(C)c1CCC(=O)O [Orantinib] (10 µM) | 0
34 | C=CC(=O)Nc1ccc(CN2C(=O)N(c3cc(OC)cc(OC)c3)Cc3cnc(Nc4ccc(N5CCN(C)CC5)cc4)nc32)cc1 (2.5 µM) | 0
